Values quoted from earlier work, collected in patent publication US20090280160A1, “PHENYLEPHRINE PHARMACEUTICAL FORMULATIONS AND COMPOSITIONS FOR TRANSMUCOSAL ABSORPTION” (Schering-Plough Healthcare Products, Inc., priority 2007, published 2009).
Some entries share one result that the patent states for a list of compounds.

Settings: in vivo; cited from earlier work

Q: With COc1ccc(CCN2CCC(Nc3nc4ccccc4n3Cc3ccc(F)cc3)CC2)cc1 [Astemizole] as the compound, how does the duration of action read?
A: greater than 24 hours

Q: With O=C(O)COCCN1CCN(C(c2ccccc2)c2ccc(Cl)cc2)CC1 (stereo not shown) [Cetirizine] as the compound, how does the duration of action read?
A: 12 to 24 h

Q: With CC(C)(C)c1ccc(C(O)CCCN2CCC(C(O)(c3ccccc3)c3ccccc3)CC2)cc1 (stereo not shown) [Terfenadine] as the compound, how does the duration of action read?
A: 12 to 24 h

Q: For CCOC(=O)N1CCC(=C2c3ccc(Cl)cc3CCc3cccnc32)CC1 [loratadine], which duration of action is on record?
A: greater than 24 hours
